# Reference: PubChem BioAssay AID1259254 (NCATS, 2017)
# Aim: 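Gene knock-downs that lead to re-replication, shown by excess G2 DNA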 (primary screen)
# Cell system: human HCT116 colorectal cancer cells
# Knock-down reagent: single siRNA against human genes
# Duration: 3 days
# Detection: 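Nuclei stained with Hoechst and imaged; cell-cycle phase assigned by DNA content; G2 share scaled per plate, non-targeting siRNA 0%, GMNN siRNA 100%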
# Reading the numbers: G2 robust z-score and G2 cells, % of GMNN control: higher = more G2 cells, more excess DNA replication
# Call rule: 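Active siRNAs have a G2 robust z of 5 or more median absolute deviations over the median, which in these data means about 38% or higher of GMNN control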
# The deposit covers about 59,000 reagents; below is a part drawn at random. Over the whole deposit, about 1,550 (2.6%) were called active. 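G2 share is only a proxy for re-replication; each gene was hit by three separate siRNAs, and active genes were retested.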 A number with no mark means an inactive call. Reagents against one gene are numbered here. Not all columns of the deposit are shown. Not stated in the record: the amount of reagent.
gene,siRNA no.,G2 robust z-score,"G2 cells, % of GMNN control"
PTF1A,1,-0.811,-2.74
PTF1A,2,3.14,25.1
PTF1A,3,-1.15,-5.13
UBXN8,1,-0.241,1.27
UBXN8,2,0.564,6.94
UBXN8,3,1.23,11.7
KLRG2,1,-0.672,-1.76
KLRG2,2,-1.33,-6.41
KLRG2,3,-0.0659,2.5
SLC1A1,1,0.625,7.37
SLC1A1,2,-1.11,-4.85
SLC1A1,3,-0.906,-3.41
PIGC,1,2.41,19.9
PIGC,2,-0.874,-3.18
PIGC,3,-0.0217,2.81
SCGB1C1,1,-0.625,-1.43
SCGB1C1,2,0.961,9.73
SCGB1C1,3,2.79,22.6
PRDM4,1,-0.199,1.57
PRDM4,2,-0.759,-2.37
PRDM4,3,0.442,6.08
H3-5,1,0.564,6.93
H3-5,2,0.699,7.89
H3-5,3,0.727,8.08
METTL25,1,0.453,6.16
METTL25,2,0.0466,3.3
METTL25,3,-0.792,-2.61
ENO1,1,-0.534,-0.79
ENO1,2,0.773,8.4
ENO1,3,1.83,15.9
STAG3,1,0.433,6.01
STAG3,2,-0.455,-0.232
STAG3,3,-0.073,2.45

Next part, starting with the last 5 of the part before.
gene,siRNA no.,G2 robust z-score,"G2 cells, % of GMNN control"
ENO1,2,0.773,8.4
ENO1,3,1.83,15.9
STAG3,1,0.433,6.01
STAG3,2,-0.455,-0.232
STAG3,3,-0.073,2.45
ZNF415,1,0.296,5.05
ZNF415,2,-1.05,-4.4
ZNF415,3,-0.225,1.38
HPX-2 (retired record),1,-0.281,0.99
HPX-2 (retired record),2,-1.02,-4.23
HPX-2 (retired record),3,-0.865,-3.12
RPL7P56,1,4.32,33.4
RPL7P56,2,-0.497,-0.533
RPL7P56,3,6.42 (active),48.1
DRP2,1,0.529,6.69
DRP2,2,-0.885,-3.26
DRP2,3,-0.37,0.361
SULT1E1,1,-0.801,-2.67
SULT1E1,2,4.63,35.6
SULT1E1,3,1.07,10.5
IFI16,1,-0.247,1.23
IFI16,2,-0.604,-1.28
IFI16,3,-0.375,0.332
C19orf48P,1,-0.824,-2.83
C19orf48P,2,-1.01,-4.12
C19orf48P,3,3.01,24.1
POU2AF2,1,0.145,3.99
POU2AF2,2,-0.21,1.49
POU2AF2,3,-0.0879,2.35
NXPH1,1,0.621,7.33
NXPH1,2,1.36,12.5
NXPH1,3,-0.394,0.194
HNMT,1,-0.31,0.788
HNMT,2,1.68,14.8
HNMT,3,-1.08,-4.65
KIF4B,1,0.132,3.9
KIF4B,2,2.46,20.3
KIF4B,3,1.46,13.3
SLC25A23,1,-1.07,-4.59
SLC25A23,2,2.02,17.2
SLC25A23,3,-0.657,-1.65
ZNF267,1,0.738,8.16
ZNF267,2,-0.589,-1.18
ZNF267,3,-0.398,0.165
GPR183,1,-0.132,2.04
GPR183,2,-0.296,0.882
GPR183,3,0.0482,3.31
PFDN2,1,-0.488,-0.465
PFDN2,2,2.09,17.6
PFDN2,3,-0.738,-2.23
TTLL5,1,-0.134,2.02
TTLL5,2,-0.321,0.707
TTLL5,3,-1.31,-6.28
DACT2,1,0.0308,3.18
DACT2,2,-0.342,0.561
DACT2,3,-0.0868,2.36
DIPK1B,1,-0.125,2.09
DIPK1B,2,-0.763,-2.4
DIPK1B,3,-0.353,0.481
